{"sequences": {"note": "Sequences of proteins named here, by UniProt entry; tags and fusion partners are left off.", "UniProt Q15717, whole entry": "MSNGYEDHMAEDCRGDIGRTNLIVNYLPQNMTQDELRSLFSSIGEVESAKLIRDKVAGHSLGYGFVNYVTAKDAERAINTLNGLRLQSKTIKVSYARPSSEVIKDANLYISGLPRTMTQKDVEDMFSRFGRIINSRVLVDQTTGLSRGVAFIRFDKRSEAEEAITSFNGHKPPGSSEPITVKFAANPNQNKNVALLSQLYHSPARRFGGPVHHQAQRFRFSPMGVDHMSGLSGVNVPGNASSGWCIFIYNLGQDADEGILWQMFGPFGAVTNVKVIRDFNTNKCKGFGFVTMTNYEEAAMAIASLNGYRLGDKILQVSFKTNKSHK"}, "source": "the supplement of paper PMC3741180", "about": "“A Novel High Throughput Biochemical Assay to Evaluate the HuR Protein-RNA Complex Formation” (PLoS ONE, 2013)", "note": "The list shows a part of the results. This data set is noisy: repeats of one test often differ as much as different tests do."}
{"biological_target": "HuR (ELAVL1) - TNFalpha ARE RNA complex (UniProt Q15717)", "test": "AlphaScreen HuR-RNA complex signal Z-score relative to positive (Bi-TNF, DMSO) controls (Z-score (SD units of positive control)); higher = more complex signal", "details": "screen stage: primary screen; compound concentration: 25 nM"}
{"smiles": "COc1ccc(-c2oc3c(CC=C(C)C)c(O[C@@H]4O[C@H](CO)[C@@H](O)[C@H](O)[C@H]4O)cc(O)c3c(=O)c2O[C@@H]2O[C@@H](C)[C@H](O)[C@@H](O)[C@H]2O)cc1", "AlphaScreen HuR-RNA complex signal Z-score": 0.949}
{"smiles": "C[C@H]1[C@@H](O)O[C@@H]2O[C@@]3(C)CC[C@H]4[C@H](C)CC[C@@H]1[C@@]24OO3", "AlphaScreen HuR-RNA complex signal Z-score": 2.16}
{"smiles": "CCN(Cc1ccncc1)C(=O)C(CO)c1ccccc1", "note": "(configuration not stated)", "AlphaScreen HuR-RNA complex signal Z-score": -3.06}
{"smiles": "Cc1ncc([N+](=O)[O-])n1CCO", "AlphaScreen HuR-RNA complex signal Z-score": 3.02}
{"smiles": "CCN(CC)CC#CCOC(=O)C(O)(c1ccccc1)C1CCCCC1", "note": "(configuration not stated)", "AlphaScreen HuR-RNA complex signal Z-score": 2.81}
{"smiles": "CC(C)CCC[C@@H](C)[C@H]1CC[C@H]2[C@@H]3CC=C4CC(=O)CC[C@]4(C)[C@H]3CC[C@]12C", "AlphaScreen HuR-RNA complex signal Z-score": 1.59}
{"smiles": "CC(=O)OC1CCC23CC1(C)CCC2C(C)(C)CC3OC(C)=O", "note": "(configuration not stated)", "AlphaScreen HuR-RNA complex signal Z-score": 2.02}
{"smiles": "C=CC[C@@H]1/C=C(\\C)C[C@H](C)C[C@H](OC)[C@H]2O[C@@](O)(C(=O)C(=O)N3CCCC[C@H]3C(=O)O[C@H](/C(C)=C/[C@@H]3CC[C@@H](O)[C@H](OC)C3)[C@H](C)[C@@H](O)CC1=O)[C@H](C)C[C@@H]2OC", "AlphaScreen HuR-RNA complex signal Z-score": 1.07}
{"smiles": "NC[C@H]1O[C@H](O[C@H]2[C@H](O[C@@H]3O[C@H](CO)[C@@H](O)[C@H]3O)[C@@H](O)[C@H](N)C[C@@H]2N)[C@H](N)[C@@H](O)[C@@H]1O", "AlphaScreen HuR-RNA complex signal Z-score": 1.1}
{"smiles": "COc1ccc2[nH]cc(CCNC(C)=O)c2c1", "AlphaScreen HuR-RNA complex signal Z-score": 0.126}
{"smiles": "O=C([O-])c1ccccc1O.[Na+]", "AlphaScreen HuR-RNA complex signal Z-score": 3.07}
{"smiles": "CCCC(=O)Nc1ncnc2c1ncn2[C@@H]1O[C@@H]2COP(=O)(O)O[C@H]2[C@H]1OC(=O)CCC", "AlphaScreen HuR-RNA complex signal Z-score": 1.57}
{"smiles": "CC(=O)N[C@@H](CCC(=O)O)C(=O)O", "AlphaScreen HuR-RNA complex signal Z-score": 1.6}
{"smiles": "CN1CCCC(n2nc(Cc3ccc(Cl)cc3)c3ccccc3c2=O)CC1", "note": "(configuration not stated)", "AlphaScreen HuR-RNA complex signal Z-score": 3.1}
{"smiles": "O=C(CNC(=O)c1ccc(Cl)cc1)NO", "AlphaScreen HuR-RNA complex signal Z-score": 0.581}
{"smiles": "NC(=O)N/N=C/c1ccc([N+](=O)[O-])o1", "AlphaScreen HuR-RNA complex signal Z-score": 5.95}
{"smiles": "CO[C@@H]1[C@@H](OC(N)=O)[C@@H](O)[C@H](Oc2ccc3c(O)c(NC(=O)c4ccc(O)c(CC=C(C)C)c4)c(=O)oc3c2C)OC1(C)C", "AlphaScreen HuR-RNA complex signal Z-score": -5.66}
{"smiles": "O=C(NCO)c1cccnc1", "AlphaScreen HuR-RNA complex signal Z-score": 2.07}
{"smiles": "CC(=O)Oc1cccc(O)c1", "AlphaScreen HuR-RNA complex signal Z-score": -0.347}
{"smiles": "C/C1=C\\CCC(=O)C2CC(C)(C)C2CC1", "note": "(configuration not stated)", "AlphaScreen HuR-RNA complex signal Z-score": 2.02}
{"smiles": "CCN1CCN(C(=O)N[C@@H](C(=O)N[C@@H]2C(=O)N3[C@@H]2SC(C)(C)[C@@H]3C(=O)O)c2ccccc2)C(=O)C1=O", "AlphaScreen HuR-RNA complex signal Z-score": -0.592}
{"smiles": "OC[C@H]1O[C@@H](Oc2ccc(O)cc2)[C@H](O)[C@@H](O)[C@@H]1O", "AlphaScreen HuR-RNA complex signal Z-score": 1.6}
{"smiles": "Nc1ccc(S(=O)(=O)c2ccc(N)cc2)cc1", "AlphaScreen HuR-RNA complex signal Z-score": -2.32}
{"smiles": "OCCN1CCN(CCCN2c3ccccc3Sc3ccc(Cl)cc32)CC1", "AlphaScreen HuR-RNA complex signal Z-score": 1.22}
{"smiles": "CN(C)CCc1c[nH]c2ccc(Cn3cncn3)cc12", "AlphaScreen HuR-RNA complex signal Z-score": -6.55}
{"smiles": "COc1cc(/C=C/C(=O)O)cc(OC)c1OC", "AlphaScreen HuR-RNA complex signal Z-score": 2.22}
{"smiles": "CC1(C)OC(=O)NC1=O", "AlphaScreen HuR-RNA complex signal Z-score": -2.88}
{"smiles": "CCC[C@H](N[C@@H](C)C(=O)N1[C@H](C(=O)O)C[C@@H]2CCCC[C@@H]21)C(=O)OCC", "AlphaScreen HuR-RNA complex signal Z-score": 1.79}
{"smiles": "Cn1nnnc1SCC1=C(C(=O)O)N2C(=O)[C@@H](NC(=O)[C@H](O)c3ccccc3)[C@H]2SC1", "AlphaScreen HuR-RNA complex signal Z-score": 1.01}
{"smiles": "COc1ccc(NS(=O)(=O)c2ccc(N)cc2)nn1", "AlphaScreen HuR-RNA complex signal Z-score": 1.59}
{"smiles": "Nc1ccc(C(=O)NCC(=O)O)cc1", "AlphaScreen HuR-RNA complex signal Z-score": 0.736}
{"smiles": "NC(C(=O)O)C(O)C(=O)O", "note": "(stereo not drawn) [d,l-threo-3-HYDROXYASPARTIC ACID]", "AlphaScreen HuR-RNA complex signal Z-score": -4.91}
{"smiles": "CC(=O)Oc1cccc2c1C(=O)c1c(OC(C)=O)cc(C(=O)O)cc1C2=O", "AlphaScreen HuR-RNA complex signal Z-score": 0.985}
{"smiles": "Cc1ncc(CSSCc2cnc(C)c(O)c2CO)c(CO)c1O", "AlphaScreen HuR-RNA complex signal Z-score": 2.25}
{"smiles": "COC(=O)C1=CO[C@@H](O[C@@H]2O[C@H](CO)[C@@H](O)[C@H](O)[C@H]2O)[C@@H]2[C@@H](C)[C@@H](O)C[C@H]12", "AlphaScreen HuR-RNA complex signal Z-score": 2.3}
{"smiles": "N[C@H]1C(O)O[C@H](CO)[C@@H](O)[C@@H]1O", "note": "(some centres not stated)", "AlphaScreen HuR-RNA complex signal Z-score": -6.29}
{"smiles": "C=C1C[C@H]2[C@@H]3C=C(C)C4=CC(=O)CC[C@]4(C)[C@H]3CC[C@]2(C)[C@@]1(OC(C)=O)C(C)=O", "AlphaScreen HuR-RNA complex signal Z-score": 1.05}
